From article doi:10.1101/2023.02.07.527589
These are yes or no findings as the source states them, for the method shown. In cells and extracts the contact can be indirect. Some entries that bind do so weakly or less than the wild type.

By UniProt entry, the sequences of proteins in these tests, tags left out. Residues count along the entry.
UniProt Q15468, residues 375-510: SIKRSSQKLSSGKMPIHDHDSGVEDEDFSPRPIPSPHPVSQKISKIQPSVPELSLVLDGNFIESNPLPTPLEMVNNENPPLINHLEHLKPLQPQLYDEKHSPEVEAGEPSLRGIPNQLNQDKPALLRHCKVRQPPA
UniProt Q9HC77, residues 895-1338: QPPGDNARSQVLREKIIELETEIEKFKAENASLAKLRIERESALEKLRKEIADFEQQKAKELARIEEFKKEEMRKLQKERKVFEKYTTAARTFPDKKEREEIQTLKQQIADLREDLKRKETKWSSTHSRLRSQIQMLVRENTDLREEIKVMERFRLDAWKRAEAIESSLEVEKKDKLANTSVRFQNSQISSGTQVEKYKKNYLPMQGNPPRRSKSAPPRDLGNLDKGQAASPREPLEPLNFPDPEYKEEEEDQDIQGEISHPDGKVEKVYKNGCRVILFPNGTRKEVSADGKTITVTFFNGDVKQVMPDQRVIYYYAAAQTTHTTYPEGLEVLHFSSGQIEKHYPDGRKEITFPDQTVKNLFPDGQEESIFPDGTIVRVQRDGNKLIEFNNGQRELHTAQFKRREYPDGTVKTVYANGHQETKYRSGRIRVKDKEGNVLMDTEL

Biological target: GST_STIL-CR2 (UniProt Q15468)
Assay: pull-down

## His-MBP_CPAP-CP3 wild type (wt) (from UniProt Q9HC77 895-1338) (domain or fragment)
  binding: binds
